This passage reports IC50 results from paper PMC7960226 (Science (New York, N.Y.), 2020).

Protein sequences, listed by entry. Tags and fused reporters are not part of them.
UniProt P35462, whole entry, species assumed: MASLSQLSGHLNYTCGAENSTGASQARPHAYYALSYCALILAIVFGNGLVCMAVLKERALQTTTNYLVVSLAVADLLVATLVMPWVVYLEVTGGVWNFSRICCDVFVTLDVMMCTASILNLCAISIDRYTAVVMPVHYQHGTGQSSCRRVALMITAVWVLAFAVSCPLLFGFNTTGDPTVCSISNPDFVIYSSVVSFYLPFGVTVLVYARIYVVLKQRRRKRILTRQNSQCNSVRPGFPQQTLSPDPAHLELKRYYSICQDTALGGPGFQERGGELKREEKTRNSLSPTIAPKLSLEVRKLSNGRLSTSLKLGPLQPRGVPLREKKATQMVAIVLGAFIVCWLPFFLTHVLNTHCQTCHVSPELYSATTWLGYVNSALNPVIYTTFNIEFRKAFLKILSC

A word on the IC50: it is the concentration needed to halve the response being measured. Low readings indicate greater potency in that assay, high ones weaker potency in that assay.

The assay addresses DRD3 (Homo sapiens, UniProt P35462). Nature of the assay: biochemical.

As for `CCCCCCCCCCCCCCCC[n+]1ccccc1` [Cetylpyridinium chloride], the IC50 is 550 nM.
